Some of the results follow.
Assays:
Experiment in all cases: log2 fold change, soluble protein after heating vs DMSO (PISA); higher = thermal stabilisation; K562 cells, 10 uM, 30 min; active = over 0.2 and 3.5 SD of the protein, either way, in both replicates (recomputed)
[1] = compound: CC[C@@H]1C(=O)N(C)c2cnc(Nc3ccc(C(=O)NC4CCN(C)CC4)cc3OC)nc2N1C1CCCC1
Method in brief: (§1)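 K562 cells at 2×10^6 cells/mL were treated for 30 min with 10 μM compound, and aliquots were heated for 3 min over 48°C-58°C before pooling. Extraction used PBS with 0.5% NP-40 at 4°C, and soluble protein was the supernatant after 21,000xg for 90 min, measured by TMTpro 16plex LC-MS/MS with channel sums equalised. Thermal stability values, relative to control samples and from duplicates, are log2 fold changes.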

By UniProt entry, the sequences of proteins in these tests, tags left out. Where a name states a change or a piece, a line headed by the entry shows the natural chain unless it says otherwise.
UniProt P15586: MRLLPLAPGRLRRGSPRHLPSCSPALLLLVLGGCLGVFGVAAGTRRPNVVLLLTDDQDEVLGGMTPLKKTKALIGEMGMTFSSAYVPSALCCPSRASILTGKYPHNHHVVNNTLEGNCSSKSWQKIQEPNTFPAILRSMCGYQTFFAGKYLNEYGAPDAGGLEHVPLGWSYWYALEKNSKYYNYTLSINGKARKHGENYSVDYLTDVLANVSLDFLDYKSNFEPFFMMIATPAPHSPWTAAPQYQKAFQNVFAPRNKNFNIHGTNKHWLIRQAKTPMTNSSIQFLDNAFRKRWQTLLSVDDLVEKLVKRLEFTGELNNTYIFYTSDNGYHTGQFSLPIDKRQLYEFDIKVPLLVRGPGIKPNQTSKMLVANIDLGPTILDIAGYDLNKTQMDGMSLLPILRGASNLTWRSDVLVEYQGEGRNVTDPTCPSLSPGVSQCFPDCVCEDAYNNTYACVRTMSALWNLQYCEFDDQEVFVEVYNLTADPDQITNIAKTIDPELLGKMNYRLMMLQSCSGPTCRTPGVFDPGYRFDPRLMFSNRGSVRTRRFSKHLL
UniProt Q9Y248: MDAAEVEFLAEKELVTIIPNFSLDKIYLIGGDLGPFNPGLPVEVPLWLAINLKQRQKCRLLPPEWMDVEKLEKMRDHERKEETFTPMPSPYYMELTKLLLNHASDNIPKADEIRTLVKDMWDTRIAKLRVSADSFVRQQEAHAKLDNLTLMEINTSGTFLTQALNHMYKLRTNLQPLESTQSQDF
UniProt Q13227: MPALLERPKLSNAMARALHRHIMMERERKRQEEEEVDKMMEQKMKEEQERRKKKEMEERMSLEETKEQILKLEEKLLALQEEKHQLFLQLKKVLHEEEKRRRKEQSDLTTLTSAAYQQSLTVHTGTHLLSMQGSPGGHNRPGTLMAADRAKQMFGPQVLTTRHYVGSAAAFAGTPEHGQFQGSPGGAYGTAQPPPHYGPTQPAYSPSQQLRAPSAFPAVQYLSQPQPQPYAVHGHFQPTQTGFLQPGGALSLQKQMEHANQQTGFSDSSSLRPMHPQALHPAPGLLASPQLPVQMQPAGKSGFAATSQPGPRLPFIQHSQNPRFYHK
UniProt Q49A26: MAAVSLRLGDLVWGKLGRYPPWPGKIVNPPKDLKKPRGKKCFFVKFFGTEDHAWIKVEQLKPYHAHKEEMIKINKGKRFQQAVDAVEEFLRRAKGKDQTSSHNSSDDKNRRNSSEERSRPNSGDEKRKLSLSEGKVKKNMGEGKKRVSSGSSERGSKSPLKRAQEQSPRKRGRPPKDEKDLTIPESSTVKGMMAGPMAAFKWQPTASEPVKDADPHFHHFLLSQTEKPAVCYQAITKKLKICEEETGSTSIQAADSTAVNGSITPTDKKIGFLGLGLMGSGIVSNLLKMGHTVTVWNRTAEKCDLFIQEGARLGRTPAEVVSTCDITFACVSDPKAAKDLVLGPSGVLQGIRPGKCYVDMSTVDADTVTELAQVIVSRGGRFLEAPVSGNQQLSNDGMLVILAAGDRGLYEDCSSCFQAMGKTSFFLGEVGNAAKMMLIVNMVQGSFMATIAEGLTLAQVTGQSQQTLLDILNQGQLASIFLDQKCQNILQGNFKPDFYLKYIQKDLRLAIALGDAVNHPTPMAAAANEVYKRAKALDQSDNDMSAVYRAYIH
UniProt Q3T8J9: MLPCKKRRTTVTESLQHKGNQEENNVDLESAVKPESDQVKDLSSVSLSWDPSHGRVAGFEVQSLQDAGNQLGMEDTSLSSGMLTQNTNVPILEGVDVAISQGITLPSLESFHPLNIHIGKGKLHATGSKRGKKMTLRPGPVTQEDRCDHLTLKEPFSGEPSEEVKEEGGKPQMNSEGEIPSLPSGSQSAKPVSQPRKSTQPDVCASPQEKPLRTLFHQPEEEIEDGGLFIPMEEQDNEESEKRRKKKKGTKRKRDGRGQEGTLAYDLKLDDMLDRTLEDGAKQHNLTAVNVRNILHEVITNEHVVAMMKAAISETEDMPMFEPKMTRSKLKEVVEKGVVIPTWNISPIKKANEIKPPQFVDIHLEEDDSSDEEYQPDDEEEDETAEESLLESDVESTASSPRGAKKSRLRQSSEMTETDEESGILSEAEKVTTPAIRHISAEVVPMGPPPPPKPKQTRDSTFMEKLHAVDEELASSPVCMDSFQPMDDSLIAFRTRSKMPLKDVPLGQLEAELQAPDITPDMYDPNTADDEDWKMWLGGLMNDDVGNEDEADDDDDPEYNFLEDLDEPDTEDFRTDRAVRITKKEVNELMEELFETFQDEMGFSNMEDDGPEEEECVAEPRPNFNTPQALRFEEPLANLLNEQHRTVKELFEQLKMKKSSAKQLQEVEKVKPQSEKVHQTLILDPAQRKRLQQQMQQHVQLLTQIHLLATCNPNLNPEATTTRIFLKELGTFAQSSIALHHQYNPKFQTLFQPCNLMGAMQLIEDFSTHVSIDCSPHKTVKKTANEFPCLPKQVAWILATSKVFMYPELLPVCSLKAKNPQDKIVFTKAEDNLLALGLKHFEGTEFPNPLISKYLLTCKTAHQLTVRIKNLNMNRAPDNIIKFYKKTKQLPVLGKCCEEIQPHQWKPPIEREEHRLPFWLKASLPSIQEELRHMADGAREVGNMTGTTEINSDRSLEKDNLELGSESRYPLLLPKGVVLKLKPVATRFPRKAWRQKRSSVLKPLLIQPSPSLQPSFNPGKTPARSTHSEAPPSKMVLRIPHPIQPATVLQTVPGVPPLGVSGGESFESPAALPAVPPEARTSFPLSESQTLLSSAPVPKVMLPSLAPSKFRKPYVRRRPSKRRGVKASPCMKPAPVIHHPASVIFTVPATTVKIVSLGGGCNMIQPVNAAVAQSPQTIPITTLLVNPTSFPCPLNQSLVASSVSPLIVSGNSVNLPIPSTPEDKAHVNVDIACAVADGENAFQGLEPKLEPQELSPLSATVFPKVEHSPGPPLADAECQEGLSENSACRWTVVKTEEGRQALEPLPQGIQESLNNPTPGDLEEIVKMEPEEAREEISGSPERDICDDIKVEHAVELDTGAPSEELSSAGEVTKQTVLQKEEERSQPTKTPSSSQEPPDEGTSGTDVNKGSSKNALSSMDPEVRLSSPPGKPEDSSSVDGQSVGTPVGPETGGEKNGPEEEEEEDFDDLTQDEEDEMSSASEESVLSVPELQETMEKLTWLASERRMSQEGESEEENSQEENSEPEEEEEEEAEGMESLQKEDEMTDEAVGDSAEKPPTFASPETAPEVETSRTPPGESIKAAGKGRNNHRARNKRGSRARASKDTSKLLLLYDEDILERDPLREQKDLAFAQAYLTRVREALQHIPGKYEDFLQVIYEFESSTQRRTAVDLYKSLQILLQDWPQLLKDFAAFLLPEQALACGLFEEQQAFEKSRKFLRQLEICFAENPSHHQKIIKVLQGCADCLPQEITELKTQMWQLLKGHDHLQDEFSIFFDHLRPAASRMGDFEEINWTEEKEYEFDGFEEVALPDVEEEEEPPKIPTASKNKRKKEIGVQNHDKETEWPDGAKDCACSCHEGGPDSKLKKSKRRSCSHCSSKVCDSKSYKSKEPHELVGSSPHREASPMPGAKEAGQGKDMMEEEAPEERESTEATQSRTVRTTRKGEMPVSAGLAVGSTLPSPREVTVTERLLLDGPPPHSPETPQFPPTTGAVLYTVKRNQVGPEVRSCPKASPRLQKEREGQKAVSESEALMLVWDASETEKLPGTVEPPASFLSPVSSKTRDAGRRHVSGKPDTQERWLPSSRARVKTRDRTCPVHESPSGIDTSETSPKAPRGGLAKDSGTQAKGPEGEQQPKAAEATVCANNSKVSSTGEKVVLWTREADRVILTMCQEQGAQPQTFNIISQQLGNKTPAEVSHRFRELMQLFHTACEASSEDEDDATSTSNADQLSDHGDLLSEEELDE
UniProt Q9BRR8: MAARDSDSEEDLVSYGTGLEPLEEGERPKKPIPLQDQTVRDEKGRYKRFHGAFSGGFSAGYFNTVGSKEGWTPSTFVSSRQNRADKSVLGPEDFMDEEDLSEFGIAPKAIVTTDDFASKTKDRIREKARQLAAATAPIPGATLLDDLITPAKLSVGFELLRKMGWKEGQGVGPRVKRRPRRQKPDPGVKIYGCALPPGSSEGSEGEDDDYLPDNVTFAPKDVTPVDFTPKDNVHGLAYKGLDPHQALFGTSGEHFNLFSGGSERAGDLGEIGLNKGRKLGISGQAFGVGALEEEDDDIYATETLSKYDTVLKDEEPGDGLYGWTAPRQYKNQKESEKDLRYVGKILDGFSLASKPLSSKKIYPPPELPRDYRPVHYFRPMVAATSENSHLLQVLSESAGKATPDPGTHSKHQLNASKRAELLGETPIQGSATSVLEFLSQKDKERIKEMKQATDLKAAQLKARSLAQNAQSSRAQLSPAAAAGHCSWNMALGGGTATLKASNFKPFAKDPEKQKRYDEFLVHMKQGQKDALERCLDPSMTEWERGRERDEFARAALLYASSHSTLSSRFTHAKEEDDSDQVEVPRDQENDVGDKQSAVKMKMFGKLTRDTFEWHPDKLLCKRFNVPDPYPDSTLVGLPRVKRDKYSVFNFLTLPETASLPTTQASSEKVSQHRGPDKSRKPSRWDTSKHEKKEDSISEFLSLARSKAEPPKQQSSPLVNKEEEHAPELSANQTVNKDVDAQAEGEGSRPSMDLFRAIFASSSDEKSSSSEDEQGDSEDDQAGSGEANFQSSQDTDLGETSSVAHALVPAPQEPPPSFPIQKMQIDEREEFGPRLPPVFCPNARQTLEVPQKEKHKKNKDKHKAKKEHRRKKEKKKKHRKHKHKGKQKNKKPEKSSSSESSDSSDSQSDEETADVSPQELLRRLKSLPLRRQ
UniProt P49840: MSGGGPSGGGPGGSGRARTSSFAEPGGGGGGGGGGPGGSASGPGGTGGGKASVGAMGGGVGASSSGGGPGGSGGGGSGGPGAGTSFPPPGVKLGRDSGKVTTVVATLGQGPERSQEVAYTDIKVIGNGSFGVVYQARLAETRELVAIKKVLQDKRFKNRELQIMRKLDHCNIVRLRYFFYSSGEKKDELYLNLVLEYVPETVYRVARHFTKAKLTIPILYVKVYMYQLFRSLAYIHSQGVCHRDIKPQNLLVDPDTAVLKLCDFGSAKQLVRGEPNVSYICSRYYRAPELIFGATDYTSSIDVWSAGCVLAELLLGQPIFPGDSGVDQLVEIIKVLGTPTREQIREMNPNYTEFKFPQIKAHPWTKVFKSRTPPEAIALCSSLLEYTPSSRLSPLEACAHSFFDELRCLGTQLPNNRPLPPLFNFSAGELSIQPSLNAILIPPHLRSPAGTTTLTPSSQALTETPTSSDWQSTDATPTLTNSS
UniProt Q5T7V8: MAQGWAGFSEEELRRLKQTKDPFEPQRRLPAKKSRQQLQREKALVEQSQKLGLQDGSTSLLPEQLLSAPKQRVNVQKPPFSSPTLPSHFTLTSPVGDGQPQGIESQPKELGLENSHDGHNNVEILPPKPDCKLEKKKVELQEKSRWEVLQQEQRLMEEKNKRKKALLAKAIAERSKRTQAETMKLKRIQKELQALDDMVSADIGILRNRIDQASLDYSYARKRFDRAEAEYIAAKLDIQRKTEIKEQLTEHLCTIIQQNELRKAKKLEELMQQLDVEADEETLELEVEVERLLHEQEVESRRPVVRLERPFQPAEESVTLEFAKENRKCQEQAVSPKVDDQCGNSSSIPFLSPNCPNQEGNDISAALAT
UniProt P63218: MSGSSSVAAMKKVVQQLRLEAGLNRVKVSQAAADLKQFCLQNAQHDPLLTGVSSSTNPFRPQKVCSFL
UniProt Q9UKD1: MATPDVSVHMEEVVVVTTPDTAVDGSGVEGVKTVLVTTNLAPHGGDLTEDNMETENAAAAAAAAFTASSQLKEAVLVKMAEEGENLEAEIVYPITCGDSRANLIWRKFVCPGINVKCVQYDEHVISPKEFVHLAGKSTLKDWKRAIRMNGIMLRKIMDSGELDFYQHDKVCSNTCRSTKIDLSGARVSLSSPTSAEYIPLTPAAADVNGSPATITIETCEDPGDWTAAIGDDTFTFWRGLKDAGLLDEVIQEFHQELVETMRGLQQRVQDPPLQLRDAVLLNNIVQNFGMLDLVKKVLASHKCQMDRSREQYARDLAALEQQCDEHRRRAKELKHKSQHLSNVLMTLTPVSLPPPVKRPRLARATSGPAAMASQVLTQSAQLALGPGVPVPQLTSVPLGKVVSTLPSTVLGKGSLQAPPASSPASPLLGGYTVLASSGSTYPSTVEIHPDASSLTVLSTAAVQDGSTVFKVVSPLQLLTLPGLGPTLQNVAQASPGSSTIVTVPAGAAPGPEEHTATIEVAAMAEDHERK
UniProt O14653: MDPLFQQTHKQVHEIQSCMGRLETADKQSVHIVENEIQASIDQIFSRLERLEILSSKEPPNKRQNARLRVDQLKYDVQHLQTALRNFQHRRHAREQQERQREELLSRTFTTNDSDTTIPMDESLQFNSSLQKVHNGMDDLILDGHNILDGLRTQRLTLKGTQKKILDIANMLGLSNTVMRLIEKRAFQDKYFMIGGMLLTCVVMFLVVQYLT

volasertib = compound: CC[C@@H]1C(=O)N(C)c2cnc(Nc3ccc(C(=O)N[C@H]4CC[C@H](N5CCN(CC6CC6)CC5)CC4)cc3OC)nc2N1C(C)C [volasertib]
Method in brief: as §1

[2] = compound: CC[C@H](C)N1C=C(C2=C(C=C(C=C21)C3=CN=C(C=C3)N4CCNCC4)C(=O)NCC5=C(C=C(NC5=O)C)C)C
Method in brief: as §1

epoxomicin = compound: CC[C@H](C)[C@@H](C(=O)N[C@@H]([C@@H](C)O)C(=O)N[C@@H](CC(C)C)C(=O)[C@]1(CO1)C)NC(=O)[C@H]([C@@H](C)CC)N(C)C(=O)C [epoxomicin]
Method in brief: as §1

[3] = compound: CCn1cc(-c2ccnc3[nH]c(-c4cccc(CN(C)C)c4)cc23)c(-c2ccc(NC(=O)N(C)C)cc2)n1
Method in brief: as §1

[4] = compound: CN(C)CC(=O)Nc1ccc2[nH]c(=O)c3ccccc3c2c1
Method in brief: as §1

[5] = compound: CN1C2=C(C3=C1C(=O)N(N=C3)CC4=CC(=CC=C4)N)SC(=C2)S(=O)C
Method in brief: as §1

[6] = compound: CN1CCC(CNc2ccc3ncc(-c4cccc(OC(F)(F)F)c4)n3n2)CC1
Method in brief: as §1

[7] = compound: CCn1c(C(=O)N(C2CC2)C2CC2)cc2c3c(ncn3C)c(Nc3cc(C)n(C)n3)nc21
Method in brief: as §1

rosiglitazone = compound: CN(CCOC1=CC=C(C=C1)C[C@H]2C(=O)NC(=O)S2)C3=CC=CC=N3 (racemic) [rosiglitazone]
Method in brief: as §1

| Target | log2 fold change [1] | log2 fold change (volasertib) | log2 fold change [2] | log2 fold change (epoxomicin) | log2 fold change [3] | log2 fold change [4] | log2 fold change [5] | log2 fold change [6] | log2 fold change [7] | log2 fold change (rosiglitazone) |
| --- | --- | --- | --- | --- | --- | --- | --- | --- | --- | --- |
| GLS (UniProt O94925) | inactive: -0.271 | active: -0.366 | inactive: 0.142 | inactive: 0.151 | inactive: -0.051 | inactive: 0.103 | inactive: -0.085 | inactive: -0.241 |  |  |
| GLB1 (UniProt P16278) | active: -0.707 | active: -1.11 | inactive: 0.007 | inactive: -0.01 | inactive: 0.057 | inactive: 0.002 | inactive: 0.037 | active: -0.751 |  |  |
| GLRX3 (UniProt O76003) | inactive: -0.164 | active: -0.331 | inactive: 0.066 | inactive: 0.018 | inactive: -0.025 | inactive: -0.011 | inactive: -0.03 | inactive: -0.03 |  |  |
| GNS (UniProt P15586) | active: -0.272 | inactive: -0.181 | inactive: -0.045 | inactive: -0.012 | inactive: -0.003 | inactive: -0.007 | inactive: -0.016 | active: -0.408 |  |  |
| GINS2 (UniProt Q9Y248) | inactive: -0.011 | inactive: -0.07 | inactive: 0.171 | inactive: 0.014 | inactive: -0.135 | inactive: 0.06 | inactive: 0.064 | inactive: 0.062 |  |  |
| GPS2 (UniProt Q13227) | inactive: 0.151 | inactive: -0.072 | inactive: 0.082 | inactive: 0.016 |  | inactive: 0.068 |  |  |  |  |
| GPAT4 (UniProt Q86UL3) | inactive: -0.042 | inactive: -0.046 | inactive: -0.036 | inactive: 0.063 | inactive: -0.039 | inactive: 0.029 | inactive: -0.063 | inactive: 0.143 |  |  |
| GLYR1 (UniProt Q49A26) | inactive: 0.099 | inactive: 0.054 | inactive: 0.026 | inactive: -0.074 | inactive: 0.026 | inactive: -0.038 | inactive: -0.019 | inactive: 0.041 |  |  |
| GPN2 (UniProt Q9H9Y4) | inactive: 0.055 | inactive: 0.093 | inactive: -0.057 |  | inactive: -0.078 | inactive: 0.044 | inactive: -0.047 | inactive: -0.025 | inactive: -0.041 | inactive: -0.016 |
| GNMT (UniProt Q14749) | inactive: 0.125 | inactive: 0.246 | inactive: 0.099 |  | inactive: 0.166 | inactive: -0.09 | inactive: 0.178 | inactive: -0.104 | inactive: 0.107 | inactive: 0.204 |
| GMEB1 (UniProt Q9Y692) | inactive: -0.071 | active: -0.281 | inactive: 0.039 | inactive: 0.059 | inactive: -0.05 | inactive: -0.045 | inactive: -0.07 | inactive: -0.014 |  |  |
| GNB2 (UniProt P62879) | inactive: 0.122 | inactive: 0.103 | inactive: 0.003 | inactive: 0.046 | inactive: -0.023 | inactive: -0.042 | inactive: -0.079 | active: 0.3 |  |  |
| GON4L (UniProt Q3T8J9) | inactive: -0.134 | inactive: 0.002 | inactive: 0.029 | inactive: 0.091 |  |  | inactive: 0.05 |  |  | inactive: -0.018 |
| GLMP (UniProt Q8WWB7) | inactive: 0.116 | inactive: -0.083 | inactive: -0.061 | inactive: -0.067 |  | inactive: 0.017 | inactive: -0.116 |  |  |  |
| GLS isoform 3 (UniProt O94925) | inactive: -0.172 | active: -0.699 | inactive: 0.126 | inactive: 0.152 | inactive: -0.055 | inactive: 0.069 | inactive: -0.039 | inactive: -0.364 |  |  |
| GPATCH4 isoform 3 (UniProt Q5T3I0) | inactive: 0.297 | inactive: 0.226 |  | inactive: -0.02 | inactive: 0.259 | inactive: 0.358 | inactive: 0.183 | inactive: 0.298 |  | inactive: -0.166 |
| GPATCH1 (UniProt Q9BRR8) | inactive: -0.003 | inactive: -0.043 |  | inactive: 0.067 |  | inactive: 0.02 | inactive: -0.055 |  | inactive: -0.461 |  |

| Target | log2 fold change [1] | log2 fold change (volasertib) | log2 fold change [2] | log2 fold change (epoxomicin) | log2 fold change [3] | log2 fold change [4] | log2 fold change [5] | log2 fold change [6] | log2 fold change [7] | log2 fold change (rosiglitazone) |
| --- | --- | --- | --- | --- | --- | --- | --- | --- | --- | --- |
| GSK3A (UniProt P49840) | inactive: -0.067 | inactive: 0.002 | inactive: 0.002 | inactive: 0 | inactive: -0.101 | inactive: -0.008 | inactive: -0.066 | inactive: 0.033 |  |  |
| GLUL (UniProt P15104) | inactive: 0.049 | inactive: 0.113 | inactive: -0.041 | inactive: 0.081 | inactive: 0.014 | inactive: -0.032 | inactive: -0.032 | inactive: 0.017 |  |  |
| GORAB (UniProt Q5T7V8) | inactive: -0.12 | inactive: -0.178 | inactive: 0.069 |  |  | inactive: 0.157 | inactive: -0.384 |  | inactive: 0.022 | inactive: 0.125 |
| GPX3 (UniProt P22352) | inactive: 0.058 | inactive: -0.228 |  | inactive: -0.194 |  | inactive: -0.097 | inactive: -0.001 |  | inactive: -0.115 | inactive: 0.057 |
| GNG5 (UniProt P63218) | inactive: 0.105 | inactive: 0.033 | inactive: -0.117 | active: 0.556 | inactive: 0.004 | inactive: -0.07 | inactive: -0.014 | inactive: 0.144 |  |  |
| GNPAT (UniProt O15228) | inactive: -0.065 | inactive: -0.149 | inactive: -0.02 | inactive: 0.04 | inactive: -0.066 | inactive: -0.027 | inactive: -0.084 | active: -0.354 |  |  |
| GMEB2 (UniProt Q9UKD1) | inactive: 0.05 | active: -0.282 | inactive: 0.062 | inactive: 0.156 | inactive: -0.048 | inactive: 0.018 | inactive: -0.03 | inactive: -0.075 |  |  |
| GOLGA7B (UniProt Q2TAP0) | inactive: 0.077 | inactive: 0.153 | inactive: -0.031 |  |  | inactive: -0.066 | inactive: -0.004 |  | inactive: 0.144 | inactive: -0.137 |
| GPSM3 (UniProt Q9Y4H4) | inactive: 0.073 | inactive: -0.22 | inactive: -0.021 |  |  | inactive: 0 | inactive: -0.333 |  |  |  |
| GPX4 (UniProt P36969) | inactive: 0.019 | inactive: 0.016 | inactive: 0.012 | inactive: 0.021 | inactive: -0.025 | inactive: 0.009 | inactive: -0.061 | inactive: 0.067 |  |  |
| GOSR2 isoform 2 (UniProt O14653) | inactive: -0.065 | inactive: -0.144 | inactive: 0.034 |  | inactive: -0.075 | inactive: -0.006 | inactive: -0.183 | inactive: -0.038 | inactive: -0.043 | inactive: 0.003 |
| GIGYF2 (UniProt Q6Y7W6) | inactive: -0.093 | active: -0.52 | inactive: 0.02 | inactive: 0 | inactive: -0.039 | inactive: 0.032 | inactive: 0.021 | active: -0.221 |  |  |
| GLCCI1 (UniProt Q86VQ1) | inactive: -0.048 | inactive: 0.108 | inactive: 0.15 | inactive: -0.022 | inactive: 0.088 | inactive: -0.035 | inactive: -0.023 | active: -0.328 |  |  |
| GPCPD1 (UniProt Q9NPB8) | inactive: -0.049 | inactive: -0.164 |  | inactive: 0.159 | inactive: -0.062 |  | inactive: 0.05 | inactive: -0.077 |  |  |
| GORASP1 (UniProt Q9BQQ3) | inactive: 0.133 | inactive: -0.287 |  | inactive: 0.008 |  |  | inactive: 0.224 |  |  |  |
| GNL2 (UniProt Q13823) | inactive: 0.263 |  |  | inactive: -0.234 | inactive: -0.128 |  |  | inactive: 0.191 |  | inactive: -0.191 |

Given with tabs: entries from further up
Target	log2 fold change [1]	log2 fold change (volasertib)	log2 fold change [2]	log2 fold change (epoxomicin)	log2 fold change [3]	log2 fold change [4]	log2 fold change [5]	log2 fold change [6]	log2 fold change [7]	log2 fold change (rosiglitazone)
GOLGA7B (UniProt Q2TAP0)	inactive: 0.077	inactive: 0.153	inactive: -0.031			inactive: -0.066	inactive: -0.004		inactive: 0.144	inactive: -0.137
GPSM3 (UniProt Q9Y4H4)	inactive: 0.073	inactive: -0.22	inactive: -0.021			inactive: 0	inactive: -0.333			

From the supplement of paper PMC10849652
